# Assay results from PubChem BioAssay AID504834 (National Center for Advancing Translational Sciences (NCATS), 2011).
# In all, about 320,000 compounds went through this assay and about 22,000 (6.9%) were called active. Inconclusive means that the source gave no clear call. Such entries were picked first, then a sample of the others. The call rests on the fitted dose curve; in most records, active means well fitted inhibition curve with a large enough effect; inconclusive means small, poorly fitted or top-dose-only effect, or another doubt; inactive means no such curve, though single readings can be large or run the other way. Potencies beside an inconclusive call are fits to weak or partial responses and may not hold up.
# Assay: Primary qHTS for delayed death inhibitors of the malarial parasite plastid, 96 hour incubation
# Details: P. falciparum luciferase reporter growth; series mostly up to 28.7 µM; activity change, negative = inhibition: at the top concentration
# In short: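 Readout is luminescence from an integrated firefly luciferase in P. falciparum. Red cells, 2% hematocrit and 0.05% parasitemia final, were cultured with compound through two parasite generations (96 hours) at 37 C, 5% CO2.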
# On the % scale 0 is the no-effect control and ±100 the full control effect; potency means the concentration at half of the fitted maximal effect.
SMILES,Potency,"activity change, negative = inhibition"
O=C(CCOc1ccccc1)N1CCN(S(=O)(=O)c2ccccc2F)CC1,"inconclusive: 18.5 µM [inhibitor, single point]",
COc1ccc(CN(C)C(=O)c2cccc(S(=O)(=O)N3CCc4ccccc43)c2)c(OC)c1,"inconclusive: 18.5 µM [inhibitor, single point]",
CCCCn1nc(NC(=O)c2cccs2)c2cc3ccccc3nc21,,inactive: 58.4%
COc1cc(OC)c(OC)cc1/C=N/Nc1nc2ccccc2[nH]1,active: 1.85 µM,
Cc1nc(-c2ccc(S(=O)(=O)Nc3ccccc3C)cc2)co1,"inconclusive: 16.5 µM [inhibitor, partial curve, poor fit]",
Clc1cccc(OCc2nnc(-c3ccccc3Br)o2)c1,"inconclusive: 5.22 µM [inhibitor, single point]",
O=C(O)CCn1c(=O)[nH]c2ccccc2c1=O,,inactive: 0%
Cc1nc(SCC(=O)c2cc3ccccc3oc2=O)c(C#N)c(-c2cccs2)c1C(=O)Nc1ccccc1,"inconclusive: 11.7 µM [inhibitor, single point]",
Cn1c(C(=O)O)c(CC(=O)Nc2ccc(F)cc2F)c2ccccc21,"inconclusive: 0.0465 µM [inhibitor, full curve, poor fit]",
CCC(CNC(=O)c1c(C)nn(-c2ccccc2)c1Cl)c1ccccc1 (stereo not given),"inconclusive: 10.4 µM [inhibitor, single point]",
Cc1ccc(CNC(=O)c2nnn(CC(=O)Nc3cc(C)cc(C)c3)c2N)cc1,active: 2.08 µM,
Cc1ccc2c(c1)NC(=O)[C@@]1(C)[C@@H](c3ccccc3)[C@H]3COc4ccccc4[C@@H]3N1C2=O,"inconclusive: 18.5 µM [inhibitor, single point]",
CC(=O)Nc1cc(C(=O)N2CCN(C)CC2)ccc1Sc1ccc(C)cc1,"inconclusive: 0.37 µM [inhibitor, full curve, poor fit]",
CCOC(=O)N1CCN(c2cccc(C)c2C)CC1,,inactive: -16.9%
CC(=O)N1CCN(S(=O)(=O)c2cccc(C(=O)N(Cc3ccccc3)c3cccc(C)c3)c2)CC1,active: 8.28 µM,
Cc1cc(C)cc(N(CC(=O)Nc2ccc(-c3nc4ccc(C)cc4s3)cc2)S(C)(=O)=O)c1,active: 4.15 µM,
Cc1cc(N/N=C\c2ccc(Br)cc2)nc(-n2nc(C)cc2C)n1,"inconclusive: 0.262 µM [inhibitor, full curve, poor fit]",
CCOC(=O)C1(CCOc2ccccc2)CCN(Cc2ccc(O)c(Cl)c2)CC1,"inconclusive: 18.5 µM [inhibitor, partial curve, poor fit]",
C=CCNc1nnc(Cc2ccc(C(C)C)cc2)c(=O)[nH]1,"inconclusive: 10.4 µM [inhibitor, partial curve]",
Cc1cc(C)c(C#N)c(Sc2nnnn2-c2ccccc2)n1,active: 2.33 µM,
COCCn1c(SCC(=O)NCc2ccc3c(c2)OCO3)nnc1-c1c[nH]c2ccccc12,"inconclusive: 10.4 µM [inhibitor, single point]",
Cc1ccc2c(Cl)cc(Cl)c(OCC(=O)NC(C)(C)C)c2n1,"inconclusive: 11.7 µM [inhibitor, single point]",
O=C1CCC(C(=O)Nc2nnc(C3CC3)s2)=NN1,,inactive: 3.82%
COc1ccc(-c2nc3ccccc3c(=O)o2)cc1OC,,inactive: 0.0178%

# A different layout for part of the listing above.
SMILES	Potency	activity change, negative = inhibition
Cc1nc(-c2ccc(S(=O)(=O)Nc3ccccc3C)cc2)co1	inconclusive: 16.5 µM [inhibitor, partial curve, poor fit]	
CC(=O)Nc1cc(C(=O)N2CCN(C)CC2)ccc1Sc1ccc(C)cc1	inconclusive: 0.37 µM [inhibitor, full curve, poor fit]	
CCOC(=O)N1CCN(c2cccc(C)c2C)CC1		inactive: -16.9%

# Next part:

SMILES,Potency,"activity change, negative = inhibition"
CC(Nc1ccc(Br)cc1)C(=O)N/N=C/c1ccccc1OCc1ccccc1 (stereo not given),,inactive: -3.08%
CCNc1nc(NCC)n2c(SCC(=O)Nc3ccccc3[N+](=O)[O-])nnc2n1,"inconclusive: 9.28 µM [inhibitor, single point]",
Cc1ccc(C)c(/C=C/C(=O)c2ccccc(=O)c2O)c1,active: 1.47 µM,
COc1ccc(N2CC(C(=O)Nc3nnc(SCc4ccccn4)s3)CC2=O)cc1 (stereo not given),"inconclusive: 9.28 µM [inhibitor, partial curve, poor fit]",
O=C(O)/C=C/c1cn(-c2ccccc2)nc1-c1cccs1,,inactive: 54.1%
Cc1cccc(C)c1NC(=S)NCCSc1ccc(Cl)cc1,"inconclusive: 18.5 µM [inhibitor, single point]",
CCCC1NC(=S)NC(C)=C1C(C)=O (stereo not given),"inconclusive: 18.5 µM [inhibitor, single point]",
O=C(c1cc2cc(Cl)ccc2[nH]1)N1CCC2(CC1)OCCO2,"inconclusive: 11.7 µM [inhibitor, single point]",
CC(=O)c1c(C)[nH]c(C(=O)OCC(=O)NCCc2ccc(F)cc2)c1C,"inconclusive: 9.28 µM [inhibitor, partial curve, poor fit]",
Cc1cc(C)c(C#N)c(N2CCN(Cc3ccc4c(c3)OCO4)CC2)n1,"inconclusive: 14.7 µM [inhibitor, partial curve]",
C=CCn1c(SCc2csc(-c3ccc(Cl)cc3)n2)nnc1-c1ccccc1OC,"inconclusive: 9.28 µM [inhibitor, single point]",
Cc1cc2cc(CNC(=O)c3ccc(S(=O)(=O)N(C)C)cc3)ccc2n1C,"inconclusive: 11.7 µM [inhibitor, partial curve]",
O=C(NCCCn1ccnc1)c1ccc(Cl)s1,,inactive: -13.3%
COc1ccc(CCNC(=O)CCC(=O)N2CC(C)Oc3ccccc32)cc1OC (stereo not given),"inconclusive: 4.15 µM [inhibitor, partial curve]",
COC(=O)c1cc(C(=O)N2CCN(c3cccc(C)c3C)CC2)cc([N+](=O)[O-])c1,,inactive: 18.3%
CCOC(=O)CSc1nc2c(sc3ccc([N+](=O)[O-])cc32)c(=O)n1Cc1ccco1,,inactive: 32.7%
CN(Cc1ccccc1F)c1nc(-c2cccnc2)nc2ccccc12,"inconclusive: 14.7 µM [inhibitor, single point]",
Cc1ccc2nc(SCCCCOc3ccccc3)[nH]c2c1,"inconclusive: 9.28 µM [inhibitor, partial curve]",
Cc1cc(S(N)(=O)=O)c(N)c(S(N)(=O)=O)c1,,inactive: -1.94%
CC(C)NC(=O)c1cc(-c2ccc3c(c2)OCO3)on1,"inconclusive: 18.5 µM [inhibitor, single point]",
Clc1ccccc1OCc1nc(-c2ccncc2)no1,"inconclusive: 16.5 µM [inhibitor, partial curve, poor fit]",
Cc1cc(-c2cc(C(=O)NCc3ccccc3)on2)nc(NC2CCCC2)n1,"inconclusive: 13.1 µM [inhibitor, partial curve, poor fit]",
CC(C)(C)OC(=O)N/N=C/c1ccc(C(=O)O)cc1,"inconclusive: 11.7 µM [inhibitor, single point]",
Cc1[nH]n(-c2ccccc2)c(=O)c1-c1ccc(Cl)cc1,active: 2.08 µM,

SMILES,Potency,"activity change, negative = inhibition"
N#CNC(=Nc1cccc(F)c1)SCc1cccc(F)c1,,inactive: -0.751%
Cc1nc(NC(=O)CN2CCCCC2)sc1C(=O)N(C)C,,inactive: -16.5%
CC(=O)c1ccc(N(CC(=O)NCCc2ccccc2)C(=O)c2csnn2)cc1,active: 9.28 µM,
C=C1SC(=Nc2ccccc2Cl)N(C(=O)c2sc3ccccc3c2Cl)C1(C)C,"inconclusive: 10.4 µM [inhibitor, single point]",
CC(C)NC(=O)CSCc1c(Cl)cccc1Cl,"inconclusive: 18.5 µM [inhibitor, single point]",
COc1ccc(NCc2nnc(SCC(=O)N3CCCc4ccccc43)o2)cc1,"inconclusive: 1.65 µM [inhibitor, full curve]",
Cc1cc(C)cc(OCC(=O)OCCN2C(=O)c3ccccc3C2=O)c1,,inactive: -8.67%
Cc1ccc(CNC(=O)Cn2nnc(C(=O)Nc3cccc(C)c3C)c2N)cc1,"inconclusive: 7.38 µM [inhibitor, partial curve, poor fit]",
O=C(NN1C(=O)C2C(C1=O)C1C=CC2C12CC2)c1ccccc1Cl (stereo not given),"inconclusive: 4.15 µM [inhibitor, single point]",
O=S(=O)(NC1CCCC1)c1cc(F)ccc1F,"inconclusive: 18.5 µM [inhibitor, single point]",
CCOC(=O)CN(C(=O)CNC(=O)c1ccco1)C(C(=O)NC1CCCCC1)c1cccc(OC)c1 (stereo not given),"inconclusive: 13.1 µM [inhibitor, single point]",
COc1ccc(C)cc1NC(=O)C(CCS(C)(=O)=O)NC(C)=O (stereo not given),,inactive: 36.3%
Cc1cc(NC(=O)CCC(=O)N(CC2CCCO2)C(C(=O)NC2CCCC2)c2cccnc2)no1 (stereo not given),"inconclusive: 13.1 µM [inhibitor, partial curve, poor fit]",
Cn1c(N)c(C(=O)COC(=O)Cn2cc(C(F)(F)F)ccc2=O)c(=O)n(C)c1=O,"inconclusive: 0.0147 µM [inhibitor, full curve, poor fit]",
COc1ccc(OC)c(S(=O)(=O)N2CCN(C(=O)c3ccco3)CC2)c1,"inconclusive: 18.5 µM [inhibitor, single point]",
COC(=O)[C@@H]1C[C@H]2CC[C@H](O)C[C@H]2N1Cc1ccc(Cl)cc1,"inconclusive: 18.5 µM [inhibitor, single point]",
Cc1noc(C)c1CCC(=O)NC1CCCN(Cc2ccc(Cl)cc2)C1 (stereo not given),"inconclusive: 0.928 µM [inhibitor, partial curve]",
O=C(NC(=S)Nc1ccc(S(=O)(=O)Nc2nccs2)cc1)c1ccc(Br)o1,"inconclusive: 16.5 µM [inhibitor, partial curve, poor fit]",
COc1cc(C)c(CNc2cccc(C)c2)cc1C,,inactive: -20.7%
O=C(CCNC(=O)c1ccccc1Cl)Nc1nccs1,,inactive: 83.6%
CCCC[C@@H](CN[C@H](C)CNC)NCC1CCC(C(C)(C)C)CC1 (stereo not given in full),"inconclusive: 1.65 µM [inhibitor, full curve]",
Cc1ccc(S(=O)(=O)N2CCN(c3ccccc3)CC2)cc1C(=O)NC1CCCCC1,"inconclusive: 18.5 µM [inhibitor, single point]",
